Laboratory results: patent US20250074896A1, “ARYLTETRAHYDROPYRIDAZINE DERIVATIVE OR SALT THEREOF AND INSECTICIDAL AGENT CONTAINING THE COMPOUND AND METHOD FOR USING SAME” (NIHON NOHYAKU CO., LTD., priority 2021, published 2025)
Some results were stated once for a whole list of compounds, not compound by compound.

How the values were obtained:
[1] = tested on: Western Flower Thrips (Frankliniella occidentalis); assay: Insecticidal test on western flower thrips (kidney bean leaf pieces, hatched larvae); type: in vivo; conditions: 4 days after the treatment
Excerpt: (§1) • A: the mortality rate is 100%. • B: the mortality rate is 90 to 99%. • C: the mortality rate is 80 to 89%. • D: the mortality rate is 50 to 79%. • E: the mortality rate is 0 to 49%.
Insecticidal Test on Western Flower Thrips (Frankliniella occidentalis)
Female adults of western flower thrips were inoculated onto kidney bean leaf pieces, and allowed to lay eggs thereon for one day, then the female adults were removed. After 3 days, the hatched larvae on the leaf pieces were counted, and then the agrochemical dispersions diluted to 50 ppm or 500 ppm, each of which contained the compound described in Tables 1 to 6 as an active ingredient were applied. The number of larvae of the species surviving at 4 days after the treatment was counted, and the corrected mortality rate was calculated according to the formula shown below, and the insecticidal efficacy was evaluated according to the criteria of Test Example 1. This test was conducted in duplicate.

[2] = tested on: Small Brown Planthopper (Laodelphax striatellus); assay: Insecticidal test on small brown planthopper (dipped rice seedlings, 3rd-instar larvae); type: in vivo; conditions: rice seedlings dipped 30 seconds, 8 days after inoculation
Excerpt: as §1
Insecticidal Test on Small Brown Planthopper (Laodelphax striatellus)
The compounds represented by the general formula (1) of the present invention or salts thereof were separately dispersed in water and diluted to 50 ppm or 500 ppm. Rice plant seedlings (variety: Nihonbare) were dipped in the agrochemical dispersions for 30 seconds. After air-dried, each seedling was put into a separate glass test tube and inoculated with ten 3rd-instar larvae of small brown planthopper, and then the glass test tubes were capped with cotton plugs. At 8 days after the inoculation, the numbers of surviving larvae and dead larvae were counted, the corrected mortality rate was calculated according to the formula shown below, and the insecticidal efficacy was evaluated according to the criteria of Test Example 1.

Row | SMILES | insecticidal efficacy (corrected mortality rate) against western flower thrips ([1]; 500 ppm) | insecticidal efficacy (corrected mortality rate) against small brown planthopper ([2]; 50 ppm) | insecticidal efficacy (corrected mortality rate) against small brown planthopper ([2]; 500 ppm) | insecticidal efficacy (corrected mortality rate) against western flower thrips ([1]; 50 ppm)
1 | COC(=O)N1C(=O)C(C(=O)Nc2ccc(F)c(F)c2)=C(O)CN1c1ccc(S(=O)(=O)N(C)C)nc1 [3-202] | A (the mortality rate is 100%) | A (the mortality rate is 100%) | A (the mortality rate is 100%) | –
2 | COC(=O)N1C(=O)C(C(=O)Nc2cc(Cl)ccn2)=C(O)CN1c1ccc(C#N)nc1 [3-423] | A (the mortality rate is 100%) | – | – | –
3 | COCCOC(=O)N1C(=O)C(C(=O)Nc2ccc(F)cc2)=C(O)CN1c1ccc(C#N)c(C)c1 [3-349] | A (the mortality rate is 100%) | A (the mortality rate is 100%) | A (the mortality rate is 100%) | A (the mortality rate is 100%)
4 | Cc1cc(N2CC(O)=C(C(=O)Nc3cnc(Cl)nc3)C(=O)N2)ccc1C#N [1-4] | A (the mortality rate is 100%) | – | – | –
5 | COC(=O)N1C(=O)C(C(=O)Nc2ccn(C)n2)=C(O)CN1c1ccc(Cl)cc1 [3-584] | A (the mortality rate is 100%) | – | – | –
6 | COC(=O)N1C(=O)C(C(=O)Nc2ccc(F)cc2)=C(O)CN1c1ccc(Cl)cn1 [3-214] | A (the mortality rate is 100%) | – | – | –
7 | N#Cc1ccc(N2CC(O)=C(C(=O)Nc3cccc(C#N)n3)C(=O)N2)cc1 [1-302] | A (the mortality rate is 100%) | – | – | –
8 | COC(=O)N1C(=O)C(C(=O)Nc2cc(Br)ccn2)=C(O)CN1c1ccc(Cl)nn1 [3-415] | A (the mortality rate is 100%) | – | – | –
9 | N#Cc1ccc(N2CC(O)=C(C(=O)Nc3ccc(Cl)nn3)C(=O)N2)cn1 [1-203] | A (the mortality rate is 100%) | – | – | –
10 | COC(=O)N1C(=O)C(C(=O)Nc2cc(OC)cc(OC)c2)=C(O)CN1c1cnc(C#N)c(Cl)c1 [3-484] | A (the mortality rate is 100%) | – | – | A (the mortality rate is 100%)
11 | O=C(Nc1ccc(F)cc1)C1=C(O)CN(c2ccc(C(F)(F)F)nc2)N(C(=O)NCc2ccccc2)C1=O [3-79] | – | A (the mortality rate is 100%) | A (the mortality rate is 100%) | –
12 | CCCNC(=O)N1C(=O)C(C(=O)Nc2ccc(F)nc2)=C(O)CN1c1ccc(C#N)c(OC)c1 [3-65] | – | A (the mortality rate is 100%) | A (the mortality rate is 100%) | –
13 | CNC(=O)C1=C(O)CN(c2ccc(C#N)c(OC)c2)N(C(=O)OCC(C)C)C1=O [3-287] | – | – | A (the mortality rate is 100%) | –
14 | CN(C)S(=O)(=O)c1ccc(N2CC(O)=C(C(=O)Nc3ccc(F)c(F)c3)C(=O)N2)cn1 [1-79] | – | – | A (the mortality rate is 100%) | –
15 | O=C(Nc1ccnc(Cl)c1)C1=C(O)CN(c2ccc(Cl)nn2)NC1=O [1-200] | A (the mortality rate is 100%) | – | – | –
16 | COC(=O)N1C(=O)C(C(=O)Nc2cc(C)on2)=C(O)CN1c1ccc(Br)nc1 [3-394] | – | – | A (the mortality rate is 100%) | –

Row | SMILES | insecticidal efficacy (corrected mortality rate) against western flower thrips ([1]; 500 ppm) | insecticidal efficacy (corrected mortality rate) against small brown planthopper ([2]; 50 ppm) | insecticidal efficacy (corrected mortality rate) against small brown planthopper ([2]; 500 ppm) | insecticidal efficacy (corrected mortality rate) against western flower thrips ([1]; 50 ppm)
17 | COCCOC(=O)N1C(=O)C(C(=S)Nc2ccc(OC)cc2)=C(O)CN1c1ccc(C#N)nc1 [4-69] | – | – | A (the mortality rate is 100%) | –
18 | CCCNC(=O)N1C(=O)C(C(=O)Nc2ccc(F)nc2)=C(O)CN1c1ccc(C#N)cc1 [3-67] | – | A (the mortality rate is 100%) | A (the mortality rate is 100%) | –
19 | COC(=O)N1C(=O)C(C(=O)Nc2ccc(C)cc2)=C(O)CN1c1ccc(Cl)nc1 [3-159] | – | A (the mortality rate is 100%) | A (the mortality rate is 100%) | –
20 | COC(=O)N1C(=O)C(C(=O)Nc2cccc(OC)c2)=C(O)CN1c1cnc(C#N)c(C)c1 [3-630] | – | A (the mortality rate is 100%) | A (the mortality rate is 100%) | –
21 | COc1ncc(NC(=O)C2=C(O)CN(c3ccc(C(F)(F)F)nc3)NC2=O)cn1 [1-68] | – | – | A (the mortality rate is 100%) | –
22 | CCNC(=O)N1C(=O)C(C(=O)Nc2ccc(F)c(F)c2)=C(O)CN1c1ccc(C#N)c(F)c1 [3-388] | A (the mortality rate is 100%) | – | – | A (the mortality rate is 100%)
23 | O=C(Nc1cc(Br)ccn1)C1=C(O)CN(c2ccc(Cl)nn2)NC1=O [1-188] | – | – | A (the mortality rate is 100%) | –
24 | CNC(=O)C1=C(O)CN(c2ccc(C#N)c(Cl)c2)N(C(=O)OCC(C)C)C1=O [3-284] | – | A (the mortality rate is 100%) | A (the mortality rate is 100%) | –
25 | COC(=O)N1C(=O)C(C(=O)Nc2ccc(OC)cn2)=C(O)CN1c1ccc(C#N)nc1 [3-197] | – | A (the mortality rate is 100%) | A (the mortality rate is 100%) | –
26 | CCNC(=O)N1C(=O)C(C(=O)Nc2ccc(F)cc2)=C(O)CN1c1ccc(Br)nc1 [3-21] | – | A (the mortality rate is 100%) | A (the mortality rate is 100%) | –
27 | Cn1ccc(NC(=O)C2=C(O)CN(c3ccc(C#N)nc3)NC2=O)n1 [1-189] | – | – | A (the mortality rate is 100%) | –
28 | COC(=O)N1C(=O)C(C(=O)Nc2ccc(OC)c(OC)c2)=C(O)CN1c1cnc(C#N)c(Cl)c1 [3-485] | – | A (the mortality rate is 100%) | A (the mortality rate is 100%) | –
29 | COC(=O)N1C(=O)C(C(=O)Nc2ccc(OC)cn2)=C(O)CN1c1ccc(Br)nc1 [3-118] | – | A (the mortality rate is 100%) | A (the mortality rate is 100%) | –
30 | COC(=O)N1C(=O)C(C(=O)Nc2ccc(C)c(C)n2)=C(O)CN1c1ccc(C#N)c(Cl)c1 [3-642] | – | A (the mortality rate is 100%) | A (the mortality rate is 100%) | –
31 | COc1ccc(NC(=O)C2=C(O)CN(c3cnc(C#N)c(Cl)c3)NC2=O)cn1 [1-64] | A (the mortality rate is 100%) | – | – | –
32 | COC(=O)N1C(=O)C(C(=O)Nc2nccc(OC)n2)=C(O)CN1c1ccc(Br)nc1 [3-517] | – | – | A (the mortality rate is 100%) | –
